The results in this text go back to patent US8022203B2, “Amino derivatives of beta-homoandrostanes and beta-heteroandrostanes” (Sigma-Tau Industrie Farmaceutiche Riunite S.p.A., priority 2006, dated 2011).

Counter-ions that a name gives are not always drawn.

Data set [1] concerns hypertensive ouabain-sensitive rats (OS rats). In words: Systolic blood pressure fall in hypertensive ouabain-sensitive rats (OS rats), tail-cuff. It counts as in vivo, rat. The following applies: 10 μg/kg/day by mouth, four weeks. As for the experimental part:
The ability of these compounds to lower blood pressure was tested by using animal models with genetic arterial hypertension, in particular, spontaneous hypertensive rats of the Milan (MHS) (Bianchi G., Ferrari P., Barber B. The Milan Hypertensive strain. In Handbook of hypertension. Vol. 4: Experimental and genetic models of hypertension. Ed. W. de jong-Elsevier Science Publishers B.V., 1984:328-349) and rats made hypertensive by chronic infusion of ouabain, according to Ferrari P., et al. J. Pharm. Exp. Ther. 1998, 285, 83-94.
The procedure adopted to test the antihypertensive activity of the compounds on the above mentioned model was the following: systolic blood pressure (SBP) and heart rate (HR) were measured by an indirect tail-cuff method.
SBP and HR were measured weekly 6 hours after the treatment.

Data set [2] has as its system spontaneous hypertensive rats of the Milan (MHS). Kind of data set: Systolic blood pressure fall in spontaneous hypertensive rats (MHS), tail-cuff. The settings on record: five weeks, vs vehicle control. The format is in vivo, rat.

As for `CC12CCC3C(CCN(C=O)C4CC(=NOC5CCNC5)CCC34C)C1CCC2=O` [I-ap, (E,Z) 3-[3-(R)-Pyrrolidinyl]oxyimino-6-aza-6-formyl-7a-homoandrostane-17-one hydrochloride], in data set [1], the HR beats/min. worked out at 387 beats/min.

As to `C[C@]12CCC(=NOCCN)CC1C(=O)C[C@@H]1[C@@H]2CC[C@]2(C)C(=O)CC[C@@H]12.Cl` (mixture of isomers) [Compd. 22b, (EZ) 3-(2-aminoethoxyimino)androstane-6,17-dione hydrochloride, reference compound], in data set [2] (10 μg/kg/os daily), the HR % is on record as −4.3% and the “HR beats/min. (variation of heart rate)” value was −15.8 beats/min. For the same molecule, in data set [2] (100 μg/kg/os daily), the HR % was −2.0% and the “HR beats/min. (variation of heart rate)” value is on record as −7.2 beats/min.

For `CNCCCON=C1CCC2(C)C(C1)NC(=O)CC1C3CCC(=O)C3(C)CCC12` (stereo not drawn) [I-ac, (E,Z) 3-(3-N-Methylaminopropoxyimino)-6-aza-7a-homoandrostane-7,17-dione fumarate], in data set [2] (10 μg/kg/os daily), the HR % turned out to be 0.0% and the “HR beats/min. (variation of heart rate)” value was 0.0 beats/min.

Molecule `CC12CCC3C(CC(=O)NC4CC(=NOCCN)CCC43C)C1CCC2=O` (stereo not drawn) [I-aa, (E,Z) 3-(2-Aminoethoxyimino)-6-aza-7a-homoandrostane-7,17-dione hydrochloride] showed an HR beats/min. in data set [1] of 385 beats/min. Also, the HR % in data set [2] (0.001 μg/kg/os daily) is recorded as −5.0%; in data set [2] (0.01 μg/kg/os daily) it was −4.8%; in data set [2] (0.1 μg/kg/os daily), −4.8%; in data set [2] (1 μg/kg/os daily), −3.6%; in data set [2] (10 μg/kg/os daily) it was −2.1%. The “HR beats/min. (variation of heart rate)” value is reported as −17.5 beats/min in data set [2] (0.001 μg/kg/os daily); −7.5 beats/min in data set [2] (0.01 μg/kg/os daily); −16.3 beats/min in data set [2] (0.1 μg/kg/os daily); −12.4 beats/min in data set [2] (1 μg/kg/os daily); −7.5 beats/min in data set [2] (10 μg/kg/os daily).
